No constants are given. Whether binding was seen depends on the method and setting. In cells and extracts the contact can be indirect. Some binding calls cover weakened binding; strength is not graded here.
Biological target: BRCC3 (human (endogenous in J82)) (UniProt P46736)
Experiment: co-IP; Co-IP between endogenous BRCC3 and USP15 in J82 cells; which protein was precipitated is not told

Protein sequences, listed by entry. Tags and fused reporters are not part of them.
UniProt P46736: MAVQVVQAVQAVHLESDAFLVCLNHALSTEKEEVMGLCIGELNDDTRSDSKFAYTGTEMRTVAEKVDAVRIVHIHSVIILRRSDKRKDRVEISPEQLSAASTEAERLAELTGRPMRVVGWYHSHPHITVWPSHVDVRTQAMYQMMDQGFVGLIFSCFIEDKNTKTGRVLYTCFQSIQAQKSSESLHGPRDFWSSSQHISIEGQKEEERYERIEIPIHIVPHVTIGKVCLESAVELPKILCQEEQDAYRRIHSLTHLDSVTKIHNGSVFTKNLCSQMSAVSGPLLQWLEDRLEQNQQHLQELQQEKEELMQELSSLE

binding: binds
B1: USP15 (enzyme, UniProt Q9Y4E8 1-981)
chain: MAEGGAADLDTQRSDIATLLKTSLRKGDTWYLVDSRWFKQWKKYVGFDSWDKYQMGDQNVYPGPIDNSGLLKDGDAQSLKEHLIDELDYILLPTEGWNKLVSWYTLMEGQEPIARKVVEQGMFVKHCKVEVYLTELKLCENGNMNNVVTRRFSKADTIDTIEKEIRKIFSIPDEKETRLWNKYMSNTFEPLNKPDSTIQDAGLYQGQVLVIEQKNEDGTWPRGPSTPKSPGASNFSTLPKISPSSLSNNYNNMNNRNVKNSNYCLPSYTAYKNYDYSEPGRNNEQPGLCGLSNLGNTCFMNSAIQCLSNTPPLTEYFLNDKYQEELNFDNPLGMRGEIAKSYAELIKQMWSGKFSYVTPRAFKTQVGRFAPQFSGYQQQDCQELLAFLLDGLHEDLNRIRKKPYIQLKDADGRPDKVVAEEAWENHLKRNDSIIVDIFHGLFKSTLVCPECAKISVTFDPFCYLTLPLPMKKERTLEVYLVRMDPLTKPMQYKVVVPKIGNILDLCTALSALSGIPADKMIVTDIYNHRFHRIFAMDENLSSIMERDDIYVFEININRTEDTEHVIIPVCLREKFRHSSYTHHTGSSLFGQPFLMAVPRNNTEDKLYNLLLLRMCRYVKISTETEETEGSLHCCKDQNINGNGPNGIHEEGSPSEMETDEPDDESSQDQELPSENENSQSEDSVGGDNDSENGLCTEDTCKGQLTGHKKRLFTFQFNNLGNTDINYIKDDTRHIRFDDRQLRLDERSFLALDWDPDLKKRYFDENAAEDFEKHESVEYKPPKKPFVKLKDCIELFTTKEKLGAEDPWYCPNCKEHQQATKKLDLWSLPPVLVVHLKRFSYSRYMRDKLDTLVDFPINDLDMSEFLINPNAGPCRYNLIAVSNHYGGMGGGHYTAFAKNKDDGKWYYFDDSSVSTASEDQIVSKAAYVLFYQRQDTFSGTGFFPLDRETKGASAATGIPLESDEDSNDNDNDIENENCMHTN

From paper PMC11087123
